Measurements from article doi:10.1101/2024.02.14.580281.
These are yes or no findings as the source states them, for the method shown. Binding seen in cells or lysates may run through a third protein. Some entries that bind do so weakly or less than the wild type.

T1: MNS1 (UniProt Q8NEH6)
T1 sequence: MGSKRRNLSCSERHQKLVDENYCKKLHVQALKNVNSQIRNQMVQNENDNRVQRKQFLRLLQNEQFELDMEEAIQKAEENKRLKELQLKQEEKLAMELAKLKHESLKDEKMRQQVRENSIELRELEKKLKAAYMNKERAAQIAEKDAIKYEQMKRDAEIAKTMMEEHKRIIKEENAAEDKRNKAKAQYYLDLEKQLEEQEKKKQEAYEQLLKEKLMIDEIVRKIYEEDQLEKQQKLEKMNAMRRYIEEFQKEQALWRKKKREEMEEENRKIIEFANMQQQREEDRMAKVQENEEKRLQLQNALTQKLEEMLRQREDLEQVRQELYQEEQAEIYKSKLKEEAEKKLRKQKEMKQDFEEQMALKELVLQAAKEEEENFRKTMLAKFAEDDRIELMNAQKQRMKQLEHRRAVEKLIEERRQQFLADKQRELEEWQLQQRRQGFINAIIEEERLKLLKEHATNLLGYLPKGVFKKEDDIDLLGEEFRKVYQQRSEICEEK


Assays:
MNS1 = target: T1, MNS1; assay: co-IP
CFAP53 = CFAP53 (UniProt Q96M91); assay: co-IP

binding (MNS1)	binding (CFAP53)	Binder
binds	no binding	CFAP53 (protein, UniProt Q96M91 1-514) MYSQRFGTVQREVKGPTPKVVIVRSKPPKGQGAEHHLERIRRSHQKHNAILASIKSSERDRLKAEWDQHNDCKILDSLVRARIKDAVQGFIINIEERRNKLRELLALEENEYFTEMQLKKETIEEKKDRMREKTKLLKEKNEKERQDFVAEKLDQQFRERCEELRVELLSIHQKKVCEERKAQIAFNEELSRQKLVEEQMFSKLWEEDRLAKEKREAQEARRQKELMENTRLGLNAQITSIKAQRQATQLLKEEEARLVESNNAQIKHENEQDMLKKQKAKQETRTILQKALQERIEHIQQEYRDEQDLNMKLVQRALQDLQEEADKKKQKREDMIREQKIYHKYLAQRREEEKAQEKEFDRILEEDKAKKLAEKDKELRLEKEARRQLVDEVMCTRKLQVQEKLQREAKEQEERAMEQKHINESLKELNCEEKENFARRQRLAQEYRKQLQMQIAYQQQSQEAEKEEKRREFEAGVAANKMCLDKVQEVLSTHQVLPQNIHPMRKACPSKLPP
binds	–	MNS1 (protein, UniProt Q8NEH6 1-495) MGSKRRNLSCSERHQKLVDENYCKKLHVQALKNVNSQIRNQMVQNENDNRVQRKQFLRLLQNEQFELDMEEAIQKAEENKRLKELQLKQEEKLAMELAKLKHESLKDEKMRQQVRENSIELRELEKKLKAAYMNKERAAQIAEKDAIKYEQMKRDAEIAKTMMEEHKRIIKEENAAEDKRNKAKAQYYLDLEKQLEEQEKKKQEAYEQLLKEKLMIDEIVRKIYEEDQLEKQQKLEKMNAMRRYIEEFQKEQALWRKKKREEMEEENRKIIEFANMQQQREEDRMAKVQENEEKRLQLQNALTQKLEEMLRQREDLEQVRQELYQEEQAEIYKSKLKEEAEKKLRKQKEMKQDFEEQMALKELVLQAAKEEEENFRKTMLAKFAEDDRIELMNAQKQRMKQLEHRRAVEKLIEERRQQFLADKQRELEEWQLQQRRQGFINAIIEEERLKLLKEHATNLLGYLPKGVFKKEDDIDLLGEEFRKVYQQRSEICEEK
